Test results from US12419848B2, “Treatment of hyperinflammatory syndrome” (priority 2020, dated 2025).
≈ marks a conversion by molar mass, not a printed value. Where two headings read alike, the source gives them in different places.

Tests used:
[1] = Patient 1, day 38, subdermal 1 mg/kg/hr
[2] = tested on: severe ARDS from staphylococcus sepsis; settings: continuous infusion 1 mg/kg/hour
P2X7R = target: T1, P2X7R (Homo sapiens, UniProt Q99572); settings: 50% receptor inhibition; cited from earlier work
T1 sequence (Q99572 1-595): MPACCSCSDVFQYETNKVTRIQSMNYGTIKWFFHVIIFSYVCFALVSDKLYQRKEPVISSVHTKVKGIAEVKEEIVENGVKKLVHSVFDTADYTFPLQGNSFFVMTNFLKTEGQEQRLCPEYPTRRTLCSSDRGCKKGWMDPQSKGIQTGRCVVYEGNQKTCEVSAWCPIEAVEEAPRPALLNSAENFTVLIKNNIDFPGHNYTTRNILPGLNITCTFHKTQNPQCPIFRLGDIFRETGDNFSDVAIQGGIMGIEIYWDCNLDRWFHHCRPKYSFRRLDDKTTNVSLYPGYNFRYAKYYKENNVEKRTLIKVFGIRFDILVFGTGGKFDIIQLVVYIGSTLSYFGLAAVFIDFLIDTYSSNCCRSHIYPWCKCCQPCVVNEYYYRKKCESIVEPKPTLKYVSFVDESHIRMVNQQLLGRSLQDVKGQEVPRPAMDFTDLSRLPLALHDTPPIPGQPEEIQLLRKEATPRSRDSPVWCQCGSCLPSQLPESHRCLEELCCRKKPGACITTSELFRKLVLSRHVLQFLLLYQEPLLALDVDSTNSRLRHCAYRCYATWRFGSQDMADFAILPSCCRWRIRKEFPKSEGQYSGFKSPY

clinical = settings: human, plasma
[3] = cats, intravenous 2 mg/kg; cited from earlier work
[4] = cited from earlier work

CCN(CC)CC(=O)Nc1c(C)cccc1C [lidocaine]
lidocaine plasma level [1]: 2.3 | time to stabilisation of patient's condition [2]: ≤ 1.5 h | IC50 value (P2X7R): 66 µg/mL (≈ 282 µM) | concentration at 13 day (clinical; iv, 0.6 mg/kg, lidocaine plasma concentration, Patient 1, day 13, i.v. 0.6 mg/kg/hr): 3400 ng/mL | concentration at 14 day (clinical; iv, 0.6 mg/kg, lidocaine plasma concentration, Patient 1, day 14, i.v. 0.6 mg/kg/hr): 5400 ng/mL | concentration at 7 day (clinical; iv, 0.6 mg/kg/hr, lidocaine plasma concentration, Patient 2, day 7, i.v.): 2200 ng/mL | concentration at 8 day (clinical; iv, 0.6 mg/kg/hr, lidocaine plasma level, Patient 2, day 8, i.v.): 2900 ng/mL | concentration at 3 day (clinical; other: subdermal infusion, 1 mg/kg/hour, Lidocaine plasma level, Patient 4, day 3, continuous subdermal): 3400 ng/mL | concentration at 4 day (clinical; other: subdermal infusion, 1 mg/kg/hour, Lidocaine plasma level, Patient 4, day 4, continuous subdermal): 4200 ng/mL | concentration at 5 day (clinical; other: subdermal infusion, 1 mg/kg/hour, lidocaine plasma concentration, Patient 4, day 5, continuous subdermal): 5200 ng/mL | concentration at 4 day (clinical; other: subdermal infusion, 1 mg/kg/hr, Lidocaine plasma level, Patient 6, day 4, subdermal 1 mg/kg/hr): 4600 ng/mL | concentration at 5 day (clinical; other: subdermal infusion, 1 mg/kg/hr, Lidocaine plasma level, Patient 6, day 5, subdermal 1 mg/kg/hr): 3400 ng/mL | concentration at 21 day (clinical; other: subdermal infusion, 1 mg/kg/hr, lidocaine plasma concentration, Patient 1, day 21, subdermal 1 mg/kg/hr): 2600 ng/mL | concentration at 31 day (clinical; other: subdermal infusion, 1 mg/kg/hr, lidocaine plasma concentration, Patient 1, day 31, subdermal 1 mg/kg/hr): 1200 ng/mL | concentration at 14 day (clinical; other: subdermal infusion, 1 mg/kg/hr, lidocaine plasma level, Patient 2, day 14, subdermal 1 mg/kg/hr): 2700 ng/mL | concentration at 2 day (clinical; other: subdermal infusion, 1 mg/kg/hr, lidocaine plasma level, Patient 3, day 2, subdermal 1 mg/kg/hr): 3700 ng/mL | concentration at 5 day (clinical; other: subdermal infusion, 1 mg/kg/hr, lidocaine plasma level, Patient 5, day 5, subdermal 1 mg/kg/hr): 4000 ng/mL | concentration at 6 day (clinical; other: subdermal infusion, 1 mg/kg/hr, lidocaine plasma level, Patient 5, day 6, subdermal 1 mg/kg/hr): 3200 ng/mL | peak plasma concentration [3]: 3.6 µg/mL | mean peak plasma concentration ([4]; subcutaneous 10 mg/kg): 0.77 µg/mL | mean peak plasma concentration ([4]; subcutaneous 20 mg/kg): 1.07 µg/mL | mean peak plasma concentration ([4]; subcutaneous 30 mg/kg): 1.69 µg/mL
